Screening data, single-dose tests

Chains of the proteins cited; added tags and fusions are not shown. Residues count along the entry.
UniProt A4I591, 1-473: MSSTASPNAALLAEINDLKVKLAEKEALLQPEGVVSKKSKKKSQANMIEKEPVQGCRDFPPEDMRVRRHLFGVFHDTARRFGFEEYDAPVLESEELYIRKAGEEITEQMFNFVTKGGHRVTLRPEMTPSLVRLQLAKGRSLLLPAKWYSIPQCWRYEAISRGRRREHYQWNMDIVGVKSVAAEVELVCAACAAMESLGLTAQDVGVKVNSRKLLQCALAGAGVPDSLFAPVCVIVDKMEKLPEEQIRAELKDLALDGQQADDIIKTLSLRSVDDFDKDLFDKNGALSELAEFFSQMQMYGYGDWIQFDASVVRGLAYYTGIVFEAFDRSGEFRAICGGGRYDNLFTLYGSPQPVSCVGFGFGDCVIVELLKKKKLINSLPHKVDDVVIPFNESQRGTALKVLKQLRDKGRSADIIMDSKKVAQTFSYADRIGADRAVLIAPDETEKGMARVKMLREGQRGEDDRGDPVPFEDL
UniProt I6X8D2, whole entry: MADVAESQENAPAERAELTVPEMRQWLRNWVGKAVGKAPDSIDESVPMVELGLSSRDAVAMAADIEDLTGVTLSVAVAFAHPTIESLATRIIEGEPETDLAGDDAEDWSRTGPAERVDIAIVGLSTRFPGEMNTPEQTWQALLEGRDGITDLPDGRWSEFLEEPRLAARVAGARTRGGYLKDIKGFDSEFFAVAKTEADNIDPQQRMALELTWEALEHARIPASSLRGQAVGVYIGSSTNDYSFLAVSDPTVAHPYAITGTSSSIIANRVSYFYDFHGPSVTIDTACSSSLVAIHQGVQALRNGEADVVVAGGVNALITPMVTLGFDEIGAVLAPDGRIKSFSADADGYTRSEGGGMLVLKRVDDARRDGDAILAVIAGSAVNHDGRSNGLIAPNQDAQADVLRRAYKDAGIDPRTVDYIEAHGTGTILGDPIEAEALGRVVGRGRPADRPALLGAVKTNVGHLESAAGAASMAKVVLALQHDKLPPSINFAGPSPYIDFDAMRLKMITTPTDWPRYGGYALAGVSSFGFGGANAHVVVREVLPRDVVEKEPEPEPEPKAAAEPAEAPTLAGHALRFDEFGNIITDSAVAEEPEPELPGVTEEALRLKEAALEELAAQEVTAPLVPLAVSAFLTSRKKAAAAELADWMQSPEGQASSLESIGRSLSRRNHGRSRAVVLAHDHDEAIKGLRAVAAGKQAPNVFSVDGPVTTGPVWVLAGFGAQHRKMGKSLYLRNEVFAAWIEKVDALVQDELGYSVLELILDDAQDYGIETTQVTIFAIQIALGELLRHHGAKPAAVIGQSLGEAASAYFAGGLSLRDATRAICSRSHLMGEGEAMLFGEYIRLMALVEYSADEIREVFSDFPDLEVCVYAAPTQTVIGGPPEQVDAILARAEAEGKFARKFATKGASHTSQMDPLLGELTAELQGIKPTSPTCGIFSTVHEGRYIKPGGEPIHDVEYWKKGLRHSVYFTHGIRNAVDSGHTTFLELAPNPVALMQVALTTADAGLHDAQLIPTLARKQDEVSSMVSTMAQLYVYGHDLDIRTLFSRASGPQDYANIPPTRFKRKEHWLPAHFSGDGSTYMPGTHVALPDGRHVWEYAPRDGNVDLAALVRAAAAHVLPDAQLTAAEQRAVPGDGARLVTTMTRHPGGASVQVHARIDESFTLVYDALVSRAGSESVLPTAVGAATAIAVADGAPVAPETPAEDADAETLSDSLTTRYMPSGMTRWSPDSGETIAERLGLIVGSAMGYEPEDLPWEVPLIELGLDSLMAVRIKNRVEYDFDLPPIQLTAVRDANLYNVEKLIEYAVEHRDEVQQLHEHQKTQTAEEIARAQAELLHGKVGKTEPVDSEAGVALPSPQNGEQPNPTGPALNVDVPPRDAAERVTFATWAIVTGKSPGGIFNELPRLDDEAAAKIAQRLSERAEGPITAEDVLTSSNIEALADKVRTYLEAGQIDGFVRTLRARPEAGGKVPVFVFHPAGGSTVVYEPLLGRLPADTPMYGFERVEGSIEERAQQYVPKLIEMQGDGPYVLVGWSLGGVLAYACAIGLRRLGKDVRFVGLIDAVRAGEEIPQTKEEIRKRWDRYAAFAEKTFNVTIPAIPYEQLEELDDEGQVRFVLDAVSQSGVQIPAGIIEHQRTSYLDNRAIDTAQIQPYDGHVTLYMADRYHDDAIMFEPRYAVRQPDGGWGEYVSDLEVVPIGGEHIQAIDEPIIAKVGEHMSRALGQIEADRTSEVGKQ

LiHisRS: 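Enzyme assay of histidyl-tRNA synthetase; the read-out is not stated. Target: Histidine-tRNA ligase, Leishmania infantum (UniProt A4I591). Concentration: 30 µM. Direction is inferred from retests: higher values go with stronger inhibition. The assay is labelled LdHisRS but filed under L. infantum. About 69,000 compounds were tested under these conditions; 0.6% (about 410) showed 50% or more at least once.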
Pks13 thioesterase: 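Enzyme assay of the thioesterase domain of polyketide synthase 13; the read-out is not stated. Target: Polyketide synthase Pks13, Mycobacterium tuberculosis (UniProt I6X8D2). Concentration: 30 µM. The record gives no direction; the compounds picked for IC50 retests had high values, so higher reads as stronger inhibition. About 67,000 compounds were tested under these conditions; 0.46% (about 300) showed 50% or more at least once.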

Results are given as percent effect.
The record does not define 0% and 100%; most values in the screen are far below 50% and negative numbers occur (in some assays of this library far below -100).
This is an unselected part of the compounds tested.
A dash means the value is not listed here; it may have been measured.

| # | structure | LiHisRS | Pks13 thioesterase |
|---|---|---|---|
| 1 | `CCS(=O)(=O)c1ncc(CN(C)Cc2ccc(C)o2)n1CCOC` | 2.4 | -2.92 |
| 2 | `Cc1noc([C@]23COC[C@H]2CN(S(=O)(=O)N(C)C)C3)n1` | 16 | -30.06 |
| 3 | `O=C(Cc1cccs1)N1C[C@@H]2CN(Cc3ccoc3)CCO[C@@H]2C1` | 19 | - |
| 4 | `CC(C)(C(=O)N1CCC(CS(N)(=O)=O)CC1)c1ccccc1F` | 3.03 | -3.362 |
| 5 | `COc1cc(-c2nc3c([nH]2)CCCNC3=O)ccc1OC(C)C` | 15.96 | -13.22 |
| 6 | `CCc1onc(C)c1C(=O)N1CCN(c2ncc3c(n2)CCOC3)CC1` | 5.594 | 2.536 |
| 7 | `CCCS(=O)(=O)NCCc1ncc(CC)s1` | 9.89 | 1.691 |
| 8 | `Cc1nccn1CC(=O)N1CC(Cc2nccc3ccn(C)c23)C1` | 6 | -0.7764 |
| 9 | `COc1cccc(CNc2cnn(CC(F)F)c2)c1` | 22.68 | 13.36 |
| 10 | `CN(C)CCNC(=O)C1Cc2nc(-c3ccsc3)sc2N1CC1CC1` (stereo not given) | 22.22 | -1.427 |
| 11 | `O=C(Cc1ccc(F)cc1)NCCNCc1cccc(O)c1` | 3.478 | -15.58 |
| 12 | `O=C(CC[C@@H]1CCCN2CCCC[C@H]12)NCCc1cc(O)ncn1` | 11.83 | -16.37 |
| 13 | `CCC(=O)Nc1nnc(CCOc2ccccc2)s1` | 5.172 | -18.6 |
| 14 | `NC(=O)C1CN(C(=O)c2ccc(F)cc2)CCN1CCc1ccccc1` (stereo not given) | 8.571 | -0.576 |
| 15 | `CNC(=O)CCNC(=O)Nc1cccc(Cl)c1SC(F)F` | 17.81 | - |
| 16 | `CNC(=O)c1cccc(NC(=O)NC(C)CCc2cccn2C)c1C` (stereo not given) | 8.065 | -3.775 |
| 17 | `CCNc1nc2c(s1)C(=O)CN(C(=O)NCc1ccccc1)C2` | 5.714 | 7.206 |
| 18 | `CN(C)c1cc(CNC(=O)c2ccc(F)cc2F)ccn1` | 16.44 | -11.83 |
| 19 | `NC(=O)N1C[C@H]2CN(Cc3nccs3)C[C@H]2C1` | 10.53 | -14.98 |
| 20 | `CCNc1cc2c(nn1)CCN(C(=O)c1cccnc1N(C)C)C2` | 16.07 | -5.123 |
| 21 | `CC(C)N(Cc1ccc(Cl)c(Cl)c1)C(=O)CCn1cncn1` | 9.89 | 1.42 |
| 22 | `COc1ccc2nc(O)c(CN(C)Cc3ncc[nH]3)cc2c1` | 9.167 | 17.48 |
| 23 | `CC(C)C(C)NC(=O)Nc1cccc(OCC#N)c1` (stereo not given) | 10.36 | -62.66 |
| 24 | `CC(C)c1cc(C(=O)N(c2ccc(F)cn2)C2CCOCC2)on1` | 7.042 | -4.133 |
| 25 | `CCc1nc(CN(C(C)=O)C2CCN(CC3CCOCC3)C2)no1` (stereo not given) | 8.475 | -14.87 |
| 26 | `Cc1cc(C(=O)N(C)Cc2ccccc2OCC(C)C)cc(=O)[nH]1` | 13.11 | -23.65 |
| 27 | `Cc1cc(C)nc(C2CCN(C(=O)CO)CC2)n1` | 1.439 | -0.1555 |
| 28 | `CC(C)c1nccn1CCn1cnc2ccsc2c1=O` | 6.14 | -13.9 |
| 29 | `CN(C)C(=O)CN1CCCC(CCCc2ccccn2)(C(N)=O)C1` (stereo not given) | 11.46 | -10.59 |
| 30 | `Cc1nccc(N2CC[C@@H]3[C@@H](CCC(=O)N3CCc3ccccc3)C2)n1` | 11.29 | -10.96 |
| 31 | `Cc1nc(CCNC(Cc2ccncc2)C(F)(F)F)cs1` (stereo not given) | 11.43 | -40.28 |
| 32 | `CN1CC2(CCCN(Cc3cccc(CCN)c3)C2)OC1=O` (stereo not given) | 7.447 | -7.963 |
| 33 | `CC(O)CN1CCN(C(=O)c2ccc(N(C)C)nc2)CC1` (stereo not given) | 16.44 | -30.75 |
| 34 | `Cc1nnc2n1CCN(CCCS(=O)(=O)c1ccccc1)C2` | 12.5 | -6.217 |
| 35 | `CO[C@H]1[C@@H]2CC[C@H]1CN(c1nc(C)nc3ccsc13)C2` | 27.27 | -10.08 |
| 36 | `Cc1nc(C2CCCN2CCCNS(C)(=O)=O)no1` (stereo not given) | 24.8 | -4.613 |
| 37 | `CN1CCCCCC1C(=O)N1CCCN(c2ccccc2)CC1` (stereo not given) | 33.73 | -11.61 |
| 38 | `COCC(NC(=O)c1ccoc1)c1ccc(C)o1` (stereo not given) | 11.97 | -37.79 |
| 39 | `COCCCNc1nc(CNC(C)=O)cc(-c2ccco2)n1` | 22.86 | 22.06 |
| 40 | `NC(=O)c1cnc(NC2CC2)nc1CCNC(=O)Cc1ccccc1` | 4.225 | 2.209 |
| 41 | `CCOCc1ccccc1CNc1ccc2nncn2n1` | 9.677 | 13.12 |
| 42 | `CN1N=C(C(=O)N2CCCC(n3cccn3)C2)CCC1=O` (stereo not given) | 4.386 | 1.771 |
| 43 | `O=C(N[C@@H]1CCN(Cc2cccc3nonc23)C[C@H]1O)c1cccnc1` | 23.46 | 0.9503 |
| 44 | `CC(C)c1csc(NC(=O)NC2CCCN(c3cnn(C)c3)C2)n1` (stereo not given) | 18.57 | -5.015 |
| 45 | `CC(C)(C)N1CC(C(=O)N2CCN(CCc3ccccc3)CC2)CC1=O` (stereo not given) | 12.62 | -10.3 |
| 46 | `CC(C(=O)N1CCN(c2ccc(F)cc2)CC1)n1cc(Br)cn1` (stereo not given) | 12.07 | -6.724 |
| 47 | `c1cc(CN2CCCC(c3ccnc4nccn34)C2)ccn1` (stereo not given) | 12.95 | 13.37 |
| 48 | `COc1ccccc1CN1C[C@@H]2CN(Cc3cccnc3)CCO[C@@H]2C1` | 10.92 | 1.851 |
| 49 | `COCCN1CCO[C@@H]2CN(Cc3ccccn3)C[C@@H]2C1` | 27.59 | 4.182 |
| 50 | `O=C(c1n[nH]cc1Cl)N1CCSCC1` | 7.965 | -2.197 |
| 51 | `O=C(c1ccoc1)N1Cc2cnn(CC3CC3)c2C(COCC2CC2)C1` (stereo not given) | 3.774 | -29.26 |
| 52 | `O=C(CCOc1cccc(Cl)c1)N1CCN(c2cnccn2)CC1` | 5.128 | 10.33 |
| 53 | `Cc1cnn(CC2CCCCN2Cc2ncc(C(C)(C)C)o2)c1` (stereo not given) | 5.217 | -4.812 |
| 54 | `O=C(CCN1CCOC(C(F)(F)F)C1)NCc1ccccc1Cl` (stereo not given) | 18.8 | -10.56 |
| 55 | `CCOC(C)c1nc(CN2CCNCC2)cs1` (stereo not given) | -5.769 | -17.77 |
| 56 | `O=c1[nH]c(C2CCOC2)nc2ccc(Br)cc12` (stereo not given) | 5.556 | 5.371 |
| 57 | `OCC1CCCN1c1cc(NCCNc2ccccn2)ncn1` (stereo not given) | 23.08 | -14.51 |
| 58 | `CS(=O)(=O)NC(=O)c1ccn(-c2ccccc2Cl)n1` | 19.47 | -18.6 |
| 59 | `O=c1[nH]c2nc(N3CCOCC3)ncc2c(=O)n1-c1cccc(F)c1` | 17.5 | -8.923 |
| 60 | `COCc1n[nH]c2c1CN(Cc1cccs1)C2` | 8.772 | -27.01 |
| 61 | `CNS(=O)(=O)c1ccc(CN2CCCN(Cc3ccncc3)CC2)cc1` | 19.74 | - |
| 62 | `CC(C)c1nc(C2CCCN2Cc2cc(=O)n(C)c(=O)n2C)no1` (stereo not given) | 3.448 | -12.2 |
| 63 | `Cc1ncc2c(n1)CCN(CCCc1nc3ccccc3o1)C2` | 12.5 | 0.614 |
| 64 | `Cc1occc(=O)c1OCc1noc(C(=O)NC(C)C)n1` | 0 | 0 |
| 65 | `O=C(CC1CC1)N1CCn2cc(Cn3cncn3)nc2C1` | 16.5 | -21.27 |

For reference, 5 entries once more:

structure	LiHisRS	Pks13 thioesterase
Cc1cnn(CC2CCCCN2Cc2ncc(C(C)(C)C)o2)c1 (stereo not given)	5.217	-4.812
O=c1[nH]c2nc(N3CCOCC3)ncc2c(=O)n1-c1cccc(F)c1	17.5	-8.923
CN(C)c1cc(CNC(=O)c2ccc(F)cc2F)ccn1	16.44	-11.83
CC(C)C(C)NC(=O)Nc1cccc(OCC#N)c1 (stereo not given)	10.36	-62.66
CC(C)(C(=O)N1CCC(CS(N)(=O)=O)CC1)c1ccccc1F	3.03	-3.362

From ChEMBL document CHEMBL3988442, “University of Dundee, Small-Polar-MMV Screening Library” (2021).